# From EP2114888B1, “TRICYCLIC COMPOUNDS AND THEIR USE AS GLUCOCORTICOID RECEPTOR MODULATORS” (priority 2007, dated 2008)
# Experiment: Dissociation index (side-effect endpoint / anti-inflammatory endpoint)
# Parameters: species or system mice
# Details: for Dissociation index OC/TNFα (ED50): osteocalcin suppression ED50 / TNFα suppression ED50; for Dissociation index OC/TNFα (ED80): osteocalcin suppression ED80 / TNFα suppression ED80
# [1] = across mice in different models, plasma exposure to normalize
# [2] = data compared in mice in the same model
smiles,measurement,setting,value
"Cc1c(NC(=O)c2ccc3c(c2)CC[C@@H]2C[C@@](O)(C(F)(F)F)CC[C@@]32Cc2ccccc2)ccc[n+]1[O-] [Comparator G, reference compound]",Dissociation index OC/TNFα (ED50),,0.39
same,Dissociation index OC/TNFα (ED80),,2.18
"Cc1ncccc1NC(=O)c1ccc2c(c1)C=C[C@@H]1C[C@@](O)(C(F)(F)F)CC[C@@]21Cc1ccccc1 [Comparator I, (4βS,7R,8αS)-4β-benzyl-7-hydroxy-N-(2-methylpyridin-3-yl)-7-(trifluoromethyl)-4β,5,6,7,8,8α-hexahydrophenanthrene-2-carboxamide]",Dissociation index OC/TNFα (ED50),,7.12
same,Dissociation index OC/TNFα (ED80),,>3.67
"Cc1ncc(NC(=O)c2ccc3c(c2)CC[C@@H]2C[C@@](O)(CCC(F)(F)F)CC[C@@]32Cc2ccccc2)c(C)n1 [Comparator J, (4βS,7S,8αR)-4β-benzyl-N-(2,4-dimethylpyrimidin-5-yl)-7-hydroxy-7-(3,3,3-trifluoropropyl)-4β,5,6,7,8,8α,9,10-octahydrophenanthrene-2-carboxamide]",Dissociation index OC/TNFα (ED50),,8.11
same,Dissociation index OC/TNFα (ED80),,4.53
"Cc1ncccc1NC(=O)c1ccc2c(c1)CC[C@@H]1C[C@@](O)(C(F)(F)F)CC[C@@]21Cc1ccccc1 [Example 1, (4βS,7R,8αR)-4β-benzyl-7-hydroxy-N-(2-methylpyridin-3-yl)-7-(trifluoromethyl)-4β,5,6,7,8,8α,9,10-octahydrophenanthrene-2-carboxamide]","Dissociation Index BFR/disease incidence, EAUC50",[1],6.8
same,"Dissociation Index BFR/disease incidence, EAUC80",[1],15.5
same,"Dissociation Index BFR/disease severity, EAUC50",[1],3.0
same,"Dissociation Index BFR/disease severity, EAUC80",[1],8.2
same,"Dissociation Index BFR/ TNFα, EAUC50",[2],1.2
same,"Dissociation Index BFR/ TNFα, EAUC80",[2],4.7
same,"Dissociation Index OC/TNFα, EAUC50",[2],5.9
same,"Dissociation Index OC/TNFα, EAUC80",[2],12.7
same,"Corrected dissociation indices (DI) BFR / TNFα, EAUC50",data set 2,16.0
same,"Corrected dissociation indices (DI) BFR / TNFα, EAUC80",data set 2,7.6
same,"Corrected dissociation indices (DI) BFR / disease incidence, EAUC50",data set 2,14.5
same,"Corrected dissociation indices (DI) BFR / disease incidence, EAUC80",data set 2,10.6
same,"Corrected dissociation indices (DI) BFR / disease severity, EAUC50",data set 2,13.0
same,"Corrected dissociation indices (DI) BFR / disease severity, EAUC80",data set 2,15.5
same,"Corrected dissociation indices (DI) OC / TNFα, EAUC50",data set 2,8.6
same,"Corrected dissociation indices (DI) OC / TNFα, EAUC80",data set 2,7.4
same,Dissociation index OC/TNFα (ED50),listed as Example 1 free base,6.33
same,Dissociation index OC/TNFα (ED80),listed as Example 1 free base,>5.49
same,"Corrected Dissociation Index BFR/TNFα, EAUC50",relative to prednisolone,7.8
same,"Corrected Dissociation Index BFR/disease incidence, EAUC50",relative to prednisolone,15.5
same,"Corrected Dissociation Index BFR/disease severity, EAUC50",relative to prednisolone,16.4
same,"Corrected Dissociation Index OC/TNFα, EAUC50",relative to prednisolone,8.4
same,"Corrected Dissociation Index OC/TNFα, EAUC80",relative to prednisolone,7.5
